One substance from article PMC8534010 can be followed below.

Amino acid sequences for entries named in this document (tags omitted). A change or cut given only in a name is not applied to a line headed by its entry.
UniProt P03372: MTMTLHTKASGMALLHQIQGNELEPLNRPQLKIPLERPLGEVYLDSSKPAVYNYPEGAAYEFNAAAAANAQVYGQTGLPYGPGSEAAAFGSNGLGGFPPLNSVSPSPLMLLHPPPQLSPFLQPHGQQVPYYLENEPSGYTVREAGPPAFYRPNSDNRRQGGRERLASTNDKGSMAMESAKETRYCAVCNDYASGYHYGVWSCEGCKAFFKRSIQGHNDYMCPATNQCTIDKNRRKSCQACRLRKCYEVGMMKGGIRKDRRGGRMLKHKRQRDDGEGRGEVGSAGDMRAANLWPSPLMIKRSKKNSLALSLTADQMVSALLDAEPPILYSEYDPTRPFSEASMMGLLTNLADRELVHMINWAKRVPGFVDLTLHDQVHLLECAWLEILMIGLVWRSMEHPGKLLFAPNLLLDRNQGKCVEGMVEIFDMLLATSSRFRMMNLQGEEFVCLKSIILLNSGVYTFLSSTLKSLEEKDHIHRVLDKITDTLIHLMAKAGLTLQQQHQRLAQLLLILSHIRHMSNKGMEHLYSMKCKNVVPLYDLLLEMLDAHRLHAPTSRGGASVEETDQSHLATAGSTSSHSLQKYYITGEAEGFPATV
UniProt P42224: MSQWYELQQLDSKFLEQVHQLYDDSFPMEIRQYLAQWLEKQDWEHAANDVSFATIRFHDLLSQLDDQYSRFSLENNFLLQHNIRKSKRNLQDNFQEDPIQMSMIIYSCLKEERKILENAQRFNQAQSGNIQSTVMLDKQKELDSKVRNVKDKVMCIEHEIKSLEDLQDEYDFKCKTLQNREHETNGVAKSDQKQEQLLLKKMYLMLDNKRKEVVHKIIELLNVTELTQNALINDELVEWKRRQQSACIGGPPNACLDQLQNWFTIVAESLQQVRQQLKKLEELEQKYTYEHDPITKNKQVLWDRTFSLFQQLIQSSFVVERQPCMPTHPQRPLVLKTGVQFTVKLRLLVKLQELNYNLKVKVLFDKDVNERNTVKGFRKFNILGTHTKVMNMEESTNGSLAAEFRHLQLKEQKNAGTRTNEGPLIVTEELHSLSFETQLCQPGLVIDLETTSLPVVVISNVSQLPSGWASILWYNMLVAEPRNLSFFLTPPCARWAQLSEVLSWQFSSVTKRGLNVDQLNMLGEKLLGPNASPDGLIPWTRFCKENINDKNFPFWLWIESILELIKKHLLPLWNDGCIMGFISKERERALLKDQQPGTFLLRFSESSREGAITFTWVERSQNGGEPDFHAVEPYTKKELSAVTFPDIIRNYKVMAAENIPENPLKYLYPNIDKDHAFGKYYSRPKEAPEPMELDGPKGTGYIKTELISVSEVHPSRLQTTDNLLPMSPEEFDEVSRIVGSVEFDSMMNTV

Test [1] addresses estrogen receptor (ERα) (human (endogenous in MCF-7:5C, MCF-7 and T47D)) (UniProt P03372). Briefly: co-IP; MCF-7 (AI-sensitive) cell lysate incubated overnight at 4 °C with 2 µg anti-ERα or rabbit IgG, Protein A/G magnetic beads, Western blot. Background: Immunoblotting shows a protein as a band on a membrane.
Test [2] shares this target. Briefly: proximity ligation; Duolink PLA Fluorescence on fixed, permeabilised MCF-7 (AI-sensitive) cells, ERα rabbit and STAT1 mouse antibodies.
Test [3] shares this target. The experiment in a line: proximity ligation; Duolink PLA Fluorescence on fixed, permeabilised T47D (AI-sensitive) cells, ERα rabbit and STAT1 mouse antibodies.
Test [4] shares this target. The experiment in a line: co-IP; T47D (AI-sensitive) cell lysate incubated overnight at 4 °C with 2 µg anti-ERα or rabbit IgG, Protein A/G magnetic beads, Western blot.

These are yes or no findings as the source states them, for the method shown. In cells and extracts the contact can be indirect.

For STAT1 (from UniProt P42224 1-750), the binding result is “no binding (condition: in AI-sensitive MCF-7 cells)” in test [1], “no binding (condition: in AI-sensitive MCF-7 cells)” in test [2], “no binding (condition: in AI-sensitive T47D cells)” in test [3] and “no binding (condition: in AI-sensitive T47D cells)” in test [4].
